According to article PMC9652399:
Results are given in words; binding and its absence hold for the method and conditions named. Binding seen in cells or lysates may run through a third protein. Some results given as binding are weak or reduced against the parent protein; the word gives no strength.

Protein sequences, listed by entry. Tags and fused reporters are not part of them. Lines headed by an entry give the natural chain unless they say otherwise; changes in a name come on top. Chains listed by the source or under a name are the forms on record and can include a tag or linker. Residues count along the entry.
Siglec-6 (sialic acid-binding immunoglobulin-like lectin 6), wild type, FLAG-tagged (O43699, residues 27-453): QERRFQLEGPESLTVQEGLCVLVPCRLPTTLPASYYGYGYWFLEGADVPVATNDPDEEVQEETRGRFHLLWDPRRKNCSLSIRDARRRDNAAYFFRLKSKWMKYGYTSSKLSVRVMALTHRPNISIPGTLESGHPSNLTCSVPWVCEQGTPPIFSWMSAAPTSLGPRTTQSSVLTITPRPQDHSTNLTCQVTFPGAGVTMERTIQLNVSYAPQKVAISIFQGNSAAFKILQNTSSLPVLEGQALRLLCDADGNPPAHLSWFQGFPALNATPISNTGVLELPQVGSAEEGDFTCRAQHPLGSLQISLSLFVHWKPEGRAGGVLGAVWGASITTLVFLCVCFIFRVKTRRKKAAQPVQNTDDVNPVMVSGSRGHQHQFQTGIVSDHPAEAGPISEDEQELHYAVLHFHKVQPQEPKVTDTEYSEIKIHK
Siglec-6 Y446F (distal ITIM-like mutant), FLAG-tagged (O43699, form named): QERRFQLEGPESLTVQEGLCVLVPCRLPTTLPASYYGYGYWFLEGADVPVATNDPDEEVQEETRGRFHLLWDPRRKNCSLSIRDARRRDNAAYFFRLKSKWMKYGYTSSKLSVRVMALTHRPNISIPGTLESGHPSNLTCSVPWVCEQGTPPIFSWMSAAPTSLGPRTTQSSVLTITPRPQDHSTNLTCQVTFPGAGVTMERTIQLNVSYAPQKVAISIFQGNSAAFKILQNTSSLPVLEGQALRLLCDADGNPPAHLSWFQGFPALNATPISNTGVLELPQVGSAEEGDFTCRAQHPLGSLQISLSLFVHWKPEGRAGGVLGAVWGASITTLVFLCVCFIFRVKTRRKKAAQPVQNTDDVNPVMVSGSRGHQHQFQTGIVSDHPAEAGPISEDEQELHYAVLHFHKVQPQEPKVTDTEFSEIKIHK
Siglec-6 Y426F (proximal ITIM mutant), FLAG-tagged (O43699, form named): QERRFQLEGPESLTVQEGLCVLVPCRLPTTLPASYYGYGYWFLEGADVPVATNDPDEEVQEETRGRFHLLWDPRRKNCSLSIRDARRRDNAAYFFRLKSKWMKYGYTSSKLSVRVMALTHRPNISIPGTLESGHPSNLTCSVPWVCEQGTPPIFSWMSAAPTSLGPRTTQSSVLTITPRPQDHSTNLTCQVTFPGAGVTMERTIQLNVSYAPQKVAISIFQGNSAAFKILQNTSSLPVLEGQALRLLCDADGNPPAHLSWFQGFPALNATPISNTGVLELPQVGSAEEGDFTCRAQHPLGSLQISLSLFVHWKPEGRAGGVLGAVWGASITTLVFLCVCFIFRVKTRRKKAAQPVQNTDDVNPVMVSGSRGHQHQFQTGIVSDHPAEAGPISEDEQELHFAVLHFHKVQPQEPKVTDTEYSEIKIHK
UniProt P29351: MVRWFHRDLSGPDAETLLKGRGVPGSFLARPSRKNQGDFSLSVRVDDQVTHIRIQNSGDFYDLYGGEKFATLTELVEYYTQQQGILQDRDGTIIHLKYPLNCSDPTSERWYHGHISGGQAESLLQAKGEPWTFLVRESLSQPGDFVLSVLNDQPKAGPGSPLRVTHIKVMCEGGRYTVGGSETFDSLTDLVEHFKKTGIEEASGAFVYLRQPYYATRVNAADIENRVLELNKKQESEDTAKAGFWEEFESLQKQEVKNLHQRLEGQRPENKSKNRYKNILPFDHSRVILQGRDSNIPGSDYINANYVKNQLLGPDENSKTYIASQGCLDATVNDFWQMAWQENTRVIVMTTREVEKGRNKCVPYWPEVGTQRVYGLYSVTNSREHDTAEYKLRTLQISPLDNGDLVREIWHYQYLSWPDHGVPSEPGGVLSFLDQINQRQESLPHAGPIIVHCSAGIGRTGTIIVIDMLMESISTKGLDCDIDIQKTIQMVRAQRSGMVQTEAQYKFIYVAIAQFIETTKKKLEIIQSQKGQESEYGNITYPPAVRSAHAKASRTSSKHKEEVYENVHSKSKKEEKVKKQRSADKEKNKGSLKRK

Columns and labels:
Assay in all cases: co-IP; anti-FLAG magnetic agarose IP (30 min, room temperature) from lysates (Pierce IP lysis buffer) of mouse BMMCs co-transfected with WT or mutant Siglec-6-FLAG and Shp-1-HA or Shp-2-HA; cells treated with pervanadate for 2 min; blots for HA, Shp-1/2, FLAG and p-Tyr
[1] = target: Siglec-6 (sialic acid-binding immunoglobulin-like lectin 6), wild type, FLAG-tagged (human) (UniProt O43699)
[2] = target: Siglec-6 Y446F (distal ITIM-like mutant), FLAG-tagged (human) (UniProt O43699)
[3] = target: Siglec-6 Y426F (proximal ITIM mutant), FLAG-tagged (human) (UniProt O43699)

- binding [1]: binds
- binding [2]: binds
- binding [3]: binds
Substance: Shp-1, HA-tagged (from UniProt P29351 1-595) (enzyme)
